Experimental data from US20030219813A1 (Takeda / Millennium, published 2003).
These are yes or no findings as the source states them, for the method shown. For some of these results: Binding seen in cells or lysates may run through a third protein. Some entries that bind do so weakly or less than the wild type. Blank lines part the entries; values can stand above or below the molecule they belong to.

Chains of the proteins cited; added tags and fusions are not shown. Residues count along the entry.
UniProt Q9NRA1, residues 23-345: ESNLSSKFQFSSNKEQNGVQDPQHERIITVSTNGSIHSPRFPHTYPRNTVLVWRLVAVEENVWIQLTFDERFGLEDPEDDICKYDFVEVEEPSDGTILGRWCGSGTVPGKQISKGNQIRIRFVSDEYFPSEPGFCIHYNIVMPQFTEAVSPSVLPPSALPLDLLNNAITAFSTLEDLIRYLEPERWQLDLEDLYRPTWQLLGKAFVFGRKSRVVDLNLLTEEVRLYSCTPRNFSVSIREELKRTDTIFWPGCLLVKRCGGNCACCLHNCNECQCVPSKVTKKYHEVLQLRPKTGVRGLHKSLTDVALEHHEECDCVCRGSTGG

Key:
[1] = biological target: SCUBE1.Myc (human SCUBE1 tagged with Myc at the C-terminus, endogenous signal peptide) (human) (UniProt Q8IWY4); assay: co-immunoprecipitation, anti-Myc IP, anti-Flag M2 blot (FIG. 8b)
[2] = biological target: SCUBE1.Myc (human SCUBE1 tagged with Myc at the C-terminus, endogenous signal peptide) (human) (UniProt Q8IWY4); assay: co-immunoprecipitation of detergent lysates, anti-Myc IP, anti-Flag M2 blot (FIG. 8b)
[3] = biological target: SCUBE1.Myc (human SCUBE1 tagged with Myc at the C-terminus, endogenous signal peptide) (human) (UniProt Q8IWY4); assay: co-immunoprecipitation and western blot from co-transfected 293T cells (FIG. 8a)
[4] = biological target: SCUBE1.Myc (human SCUBE1 tagged with Myc at the C-terminus, endogenous signal peptide) (human) (UniProt Q8IWY4); assay: co-immunoprecipitation from co-transfected cells (FIG. 8a)
[5] = biological target: PDGF-C (platelet-derived growth factor C) (UniProt Q9NRA1); assay: co-transfection in HEK-293 cells, analysis of cell lysates with antibodies

binding [1]: binds
binding [2]: binds
binding [3]: binds
binding [4]: binds
Molecule: Flag.SCUBE1-FL (Flag-tagged full-length human SCUBE1) (from UniProt Q8IWY4 23-988)

binding [1]: binds
binding [2]: binds
Molecule: Flag.SCUBE1-D1 (Flag-tagged deletion construct 1 of human SCUBE1, amino acids 26-789 of SEQ ID NO:2, CUB domain deleted) (from UniProt Q8IWY4 26-789)

binding [5]: binds
B1: human SCUBE1 (SEQ ID NO:2) (other)
chain: AGGSGLPGSVDVDECSEGTDDCHIDAICQNAPKSYKCLCKPGYKGEGKQCGDIDECENDYYNGGCVHECINIPGNYRCTCFDGFMLAHDGHNCLDVDECQDNNGGCQQICVNAMGSYECQCHSGFFLSDNQHTCIHRSNEGMNCMNKDHGCAHICRETPKGGVACDCRPGFDLAQNQKDCTLTCNYGNGGCQHSCEDTDTGPTCGCHQKYAPHSDGRTCIETCAVNNGGCDRTCKDTATGVRCSCPVGFTLQPDGKTCKDINECLVNNGGCDHFCRNTVGSFECGCRKGYKLLTDERTCQDIDECSFERTCDHICINSPGSFQCLCHRGYILYGTTHCGDVDECSMSNGSCDQGCVNTKGSYECVCPPGRRLHWNRKDCVETGKCLSRAKTSPRAQLSCSKAGGVESCFLSCPAHTLFVPDSENSYVLSCGVPGPQGKALQKRNGTSSGLGPSCSDAPTTPIKQKARFKIRDAKCHLRPHSQARAKETARQPLLDHCHVTFVTLKCDSSKKRRRGRKSPSKEVSHITAEFEIETKMEEASDTCEADCLRKRAEQSLQAAIKTLRKSIGRQQFYVQVSGTEYEVAQRPAKALEGQGACGAGQVLQDSKCVACGPGTHFGGELGQCVPCMPGTYQDMEGQLSCTPCPSSDGLGLPGARNVSECGGQCSPGFFSADGFKPCQACPVGTYQPEPGRTGCFPCGGGLLTKHEGTTSFQDCEAKVHCSPGHHYNTTTHRCIRCPVGTYQPEFGQNHCITCPGNTSTDFDGSTNVTHCKNQHCGGELGDYTGYIESPNYPGDYPANAECVWHIAPPPKRRILIVVPEIFLPIEDECGDVLVMRKSASPTSITTYETCQTYERPIAFTSRSRKLWIQFKSNEGNSGKGFQVPYVTYDEDYQQLIEDIVRDGRLYASENHQEILKDKKLIKALFDVLAHPQNYFKYTAQESKEMFPRSFIKLLRSKVSRFLRPYK
modifications: glycosylated (N-linked, tunicamycin-sensitive)
notes: protein of 988 amino acids; also called Signal peptide-CUB-EGF-like domain-containing protein 1; recombinantly expressed SCUBE1
